Data from paper PMC7819943, “Rice protein-binding microarrays: a tool to detect cis-acting elements near promoter regions in rice”.
The list shows a part of the results.

By UniProt entry, the sequences of proteins in these tests, tags left out.
UniProt Q0JBA9, entry or part of it: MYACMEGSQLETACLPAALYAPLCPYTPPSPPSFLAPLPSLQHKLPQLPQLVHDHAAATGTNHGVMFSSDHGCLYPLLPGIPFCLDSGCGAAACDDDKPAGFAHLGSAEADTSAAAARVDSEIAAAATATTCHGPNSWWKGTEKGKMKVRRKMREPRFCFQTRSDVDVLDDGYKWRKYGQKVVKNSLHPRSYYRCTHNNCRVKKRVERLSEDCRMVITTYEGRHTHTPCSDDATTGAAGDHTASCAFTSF

What follows are sequences tested against OsWRKY34 (Oryza sativa, UniProt Q0JBA9 1-250) (assay: protein-binding microarray (RPBM); PBS, 2% BSA, 51.3 ng/ul salmon testes DNA, 50 uM zinc acetate, 200 nM TF, 25 C, 1 h; high values mean tight binding). Conditions: protein: recombinant; tags: N-terminal polyhistidine and DsRed monomer fusion (pET32a); label: CyDye5-dUTP incorporated in the synthesized complementary strand; 3' TTTTT single-stranded linker to array surface; dsDNA, one strand shown.
In short: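 Transcription factors were each fused at the N-terminus to a polyhistidine tag plus DsRed and expressed in E. coli BL21-CodonPlus before Ni–NTA purification. Binding to a double-stranded custom Agilent array was carried out with 200 nM protein at 25 °C for 1 h in PBS, 2% BSA, salmon testes DNA and 50 µM zinc acetate. The binding signal is per-feature fluorescence intensity, in arbitrary units, on an Axon 4000B scanner.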

**Q.** Which binding signal does the source give for “ATACGCGCCCATCCCTGCGTCCTTGCACTTGCGCACCCACCGGAGTCACCTAGTGCAG” here?
**A.** The binding signal was 9850 fluorescence intensity (a.u.).

**Q.** With “GACTATGCAATTGTTTTTAATTTTGGTTGTGCTTATGTTGCGGAGTCACCTAGTGCAG” as the sequence, how does the binding signal read?
**A.** Its binding signal is 10900 fluorescence intensity (a.u.).

**Q.** “AATTTGTTTGAACCTGTGCCGGACTACTCCTACGAGGCATCGGAGTCACCTAGTGCAG” was tested. Which binding signal did it give?
**A.** The binding signal was 9600 fluorescence intensity (a.u.).

**Q.** For “GCGCCTTTCAATTTGCAATTATTTCTCTTGCCTATGTTTTCGGAGTCACCTAGTGCAG”, which binding signal is on record?
**A.** Its binding signal is 13200 fluorescence intensity (a.u.).

**Q.** With “GCTGGTTTGATTAGATCTTCATCCCACGTGGCATTGACGTCGGAGTCACCTAGTGCAG” as the sequence, how does the binding signal read?
**A.** Its binding signal is 9470 fluorescence intensity (a.u.).

**Q.** Which binding signal does the source give for “GCGCCATCTCCATCTCCACCTCCACATCCCTACTAGTATACGGAGTCACCTAGTGCAG” here?
**A.** The binding signal was 9760 fluorescence intensity (a.u.).

**Q.** With “TTTGTCTCGTGAATTAGCTTTTATTTATGTAATTAGTTTTCGGAGTCACCTAGTGCAG” as the sequence, how does the binding signal read?
**A.** Its binding signal is 8400 ± 235 fluorescence intensity (a.u.).

**Q.** With “TCCATTTGTCATCCCTCATCTTTCTGTCCATTATGTTTAACGGAGTCACCTAGTGCAG” as the sequence, how does the binding signal read?
**A.** The binding signal was 8980 fluorescence intensity (a.u.).

**Q.** With “TTGGTCGTGTGTATAATATTTTCCTTTTGAAATTTACTCTCGGAGTCACCTAGTGCAG” as the sequence, how does the binding signal read?
**A.** Its binding signal is 11500 fluorescence intensity (a.u.).

**Q.** Which binding signal does the source give for “CTGGCTACAGATCTGTAGTCCACTGCTCTTCTCTTTCTTCCGGAGTCACCTAGTGCAG” here?
**A.** Its binding signal is 10000 fluorescence intensity (a.u.).

**Q.** Which binding signal does the source give for “TTCCTTTTCTCCGCGCGCTTTCCGCTGGCCTTCGCTACTCCGGAGTCACCTAGTGCAG” here?
**A.** The binding signal was 8350 fluorescence intensity (a.u.).

**Q.** With “AGTTTTTGTTTGTAATATATGATCATTCGTTTTATTAAAACGGAGTCACCTAGTGCAG” as the sequence, how does the binding signal read?
**A.** Its binding signal is 9280 fluorescence intensity (a.u.).

**Q.** With “CTTGCCGCGCGCGCCCGCCCGCCCGCCCGCGCCCACCGGCCGGAGTCACCTAGTGCAG” as the sequence, how does the binding signal read?
**A.** Its binding signal is 8520 fluorescence intensity (a.u.).

**Q.** How did the binding signal turn out when “ATCATCCCCGTATTCCCGTGTGCCAGTCGACCAAACGCGTCGGAGTCACCTAGTGCAG” was run?
**A.** The binding signal was 11200 fluorescence intensity (a.u.).

**Q.** Which binding signal does the source give for “ACAATCATTTGCCACCCAATTCTTTTTATTGCCAAAACTCCGGAGTCACCTAGTGCAG” here?
**A.** The binding signal was 8210 fluorescence intensity (a.u.).

**Q.** How did the binding signal turn out when “CATTCACAACTTCACAAGCATTCTTTCCTAATTTTCTTTCCGGAGTCACCTAGTGCAG” was run?
**A.** Its binding signal is 12300 fluorescence intensity (a.u.).

**Q.** For “CTCACCGCAATTCTGTCCCCAATCCAGTGTCATTTGACTCCGGAGTCACCTAGTGCAG”, which binding signal is on record?
**A.** The binding signal was 10700 fluorescence intensity (a.u.).

**Q.** For “CGGGGCGTGAGGGGTTATGAGTATATTTGTATTTTTTTTTCGGAGTCACCTAGTGCAG”, which binding signal is on record?
**A.** Its binding signal is 18400 fluorescence intensity (a.u.).

**Q.** Which binding signal does the source give for “AGCTCGATCTCCGCACAGTCCCGGGCCACGCCCACACCACCGGAGTCACCTAGTGCAG” here?
**A.** The binding signal was 11800 fluorescence intensity (a.u.).

**Q.** “CCTCACACACCACAACATCCATCTTCACCCGGAATTAATCCGGAGTCACCTAGTGCAG” was tested. Which binding signal did it give?
**A.** The binding signal was 9060 fluorescence intensity (a.u.).

**Q.** “CATAACTTATCCCCACGCAACGCCCACCTACCACACTCCCCGGAGTCACCTAGTGCAG” was tested. Which binding signal did it give?
**A.** The binding signal was 8590 fluorescence intensity (a.u.).

**Q.** Which binding signal does the source give for “TTCTTCCTTTTGTTGAGAATTTTGCCTTCCATCTGCTTAACGGAGTCACCTAGTGCAG” here?
**A.** The binding signal was 8870 fluorescence intensity (a.u.).

**Q.** “ATATCTATAACTTTTATTTTGGTCATATCTTTTATTTGGCCGGAGTCACCTAGTGCAG” was tested. Which binding signal did it give?
**A.** Its binding signal is 9730 fluorescence intensity (a.u.).

**Q.** For “TTCATCGTAAACGTTACTTCTCGTTATAAATTGATTTTTTCGGAGTCACCTAGTGCAG”, which binding signal is on record?
**A.** Its binding signal is 10100 fluorescence intensity (a.u.).

**Q.** For “AATTTCTTGTTCCGTCCATGGTGTTGTCGATAGGAAGGCGCGGAGTCACCTAGTGCAG”, which binding signal is on record?
**A.** Its binding signal is 8570 fluorescence intensity (a.u.).

**Q.** “GTGTGTATGTTTTGTGTTGCGGACTTGCGATGCGTAGCGACGGAGTCACCTAGTGCAG” was tested. Which binding signal did it give?
**A.** Its binding signal is 8180 fluorescence intensity (a.u.).

**Q.** With “TCCACTACCACTACCGTTCCCGATCTCTGGTTCCCTGTGCCGGAGTCACCTAGTGCAG” as the sequence, how does the binding signal read?
**A.** The binding signal was 8020 fluorescence intensity (a.u.).

**Q.** For “GAATTTTAGCTCAGTGGCTTGTCGTTTTCTCGTTTTCTGACGGAGTCACCTAGTGCAG”, which binding signal is on record?
**A.** The binding signal was 12300 fluorescence intensity (a.u.).

**Q.** Which binding signal does the source give for “CGGTGATTTTTTCTGAAGCTGGTCCCTGGCCCACACTACTCGGAGTCACCTAGTGCAG” here?
**A.** Its binding signal is 8870 fluorescence intensity (a.u.).

**Q.** “GTTTATCTCTTGTCACGACGTCGGTTGTCCTTGTGCTATTCGGAGTCACCTAGTGCAG” was tested. Which binding signal did it give?
**A.** The binding signal was 9840 fluorescence intensity (a.u.).

**Q.** For “TATTTTCCGGATCGAATTGCCACGTAAGGGCCACATCAGTCGGAGTCACCTAGTGCAG”, which binding signal is on record?
**A.** The binding signal was 8510 fluorescence intensity (a.u.).

**Q.** Which binding signal does the source give for “CGCACGGCACGGGTGGGCGGGCGGGCGCGCGCCGGTGGCGCGGAGTCACCTAGTGCAG” here?
**A.** The binding signal was 9700 fluorescence intensity (a.u.).

**Q.** With “TTTCAGTTTGGCATCTCAGTGTTTTTTTATATACGTATATCGGAGTCACCTAGTGCAG” as the sequence, how does the binding signal read?
**A.** The binding signal was 12000 fluorescence intensity (a.u.).

**Q.** With “ACCCTCTACCATTTTTATTTCCATATTTTTTTCTTGAAAACGGAGTCACCTAGTGCAG” as the sequence, how does the binding signal read?
**A.** Its binding signal is 8670 fluorescence intensity (a.u.).

**Q.** Which binding signal does the source give for “TCTAGCCACGACAACTTACTCATCTTTTATTAAAATCCATCGGAGTCACCTAGTGCAG” here?
**A.** Its binding signal is 8220 fluorescence intensity (a.u.).

**Q.** For “AACACGAGTCGCGCCGCCGATCTCAGCAGGGGAGGGGAGGCGGAGTCACCTAGTGCAG”, which binding signal is on record?
**A.** The binding signal was 10900 fluorescence intensity (a.u.).

**Q.** For “GTGATGCATATATTCTCTCATATTATTGCCTGTTGGCTTTCGGAGTCACCTAGTGCAG”, which binding signal is on record?
**A.** The binding signal was 8280 fluorescence intensity (a.u.).

**Q.** Which binding signal does the source give for “TCTGCCCATGGTCTGCCCGGCCGACTCCGTGTCAGTTTCGCGGAGTCACCTAGTGCAG” here?
**A.** Its binding signal is 8660 fluorescence intensity (a.u.).

**Q.** “ACCACCTCGTAGCCTCGGCTGCAACGGCTACTACCACCATCGGAGTCACCTAGTGCAG” was tested. Which binding signal did it give?
**A.** The binding signal was 8100 fluorescence intensity (a.u.).

**Q.** “CCGTATTTTAATATATGACGTCGTTGACTTTTTAACCAACCGGAGTCACCTAGTGCAG” was tested. Which binding signal did it give?
**A.** The binding signal was 27300 fluorescence intensity (a.u.).

**Q.** For “GGTCTGACTGATTGCGTCGTGTAACAAACATTATATTCTTCGGAGTCACCTAGTGCAG”, which binding signal is on record?
**A.** The binding signal was 9070 fluorescence intensity (a.u.).

**Q.** Which binding signal does the source give for “CACGTCGTCCAGCTTTATCATTCGCTTTCGTTTTCCCCTGCGGAGTCACCTAGTGCAG” here?
**A.** The binding signal was 10200 fluorescence intensity (a.u.).

**Q.** Which binding signal does the source give for “AAACCCTAATTCCATTGCTTTCGTCAGGGTCGCCGGAGTTCGGAGTCACCTAGTGCAG” here?
**A.** Its binding signal is 12000 fluorescence intensity (a.u.).

**Q.** Which binding signal does the source give for “ATTGCTCCAGGAGCGGAACTTGAGCCCATTCATTTTTATTCGGAGTCACCTAGTGCAG” here?
**A.** The binding signal was 8120 fluorescence intensity (a.u.).

**Q.** How did the binding signal turn out when “CTTTGCAACACGGCCTCTGCCTACGAGATCGGCGACGACGCGGAGTCACCTAGTGCAG” was run?
**A.** Its binding signal is 8740 fluorescence intensity (a.u.).

**Q.** How did the binding signal turn out when “GTTCTAGTGGCTCTTTTTAGTTTTCTAATATCAGTCTTCCCGGAGTCACCTAGTGCAG” was run?
**A.** Its binding signal is 8230 fluorescence intensity (a.u.).

**Q.** For “ACCGATTCGTTTTCCCAAATCAACCGCACTACTACTGTTTCGGAGTCACCTAGTGCAG”, which binding signal is on record?
**A.** The binding signal was 9440 fluorescence intensity (a.u.).

**Q.** For “GTCCGTGTAAAGATGGTGTTCTTTTTTTTTTTTATGACACCGGAGTCACCTAGTGCAG”, which binding signal is on record?
**A.** The binding signal was 8690 fluorescence intensity (a.u.).

**Q.** Which binding signal does the source give for “GTGGTGTACGTCAGCCTGGGGAGCCTCACGGTCATCTCCCCGGAGTCACCTAGTGCAG” here?
**A.** Its binding signal is 8470 fluorescence intensity (a.u.).

**Q.** With “GGACAGTTCATCGCCCTCGTTTTATATATCTAGATCTGAACGGAGTCACCTAGTGCAG” as the sequence, how does the binding signal read?
**A.** The binding signal was 14000 fluorescence intensity (a.u.).

**Q.** “GCCTCGCCTTCTTTTTCCACACCCACACCAACCCCATCCCCGGAGTCACCTAGTGCAG” was tested. Which binding signal did it give?
**A.** Its binding signal is 10600 fluorescence intensity (a.u.).

**Q.** For “TATTTTGATAACATTTTTCTCATTTTTGTCTTTTTTGTTACGGAGTCACCTAGTGCAG”, which binding signal is on record?
**A.** Its binding signal is 8340 fluorescence intensity (a.u.).

**Q.** How did the binding signal turn out when “GGGCCTGAAGTTTATTTTTATTATTTTACTCACTGACATTCGGAGTCACCTAGTGCAG” was run?
**A.** Its binding signal is 9160 fluorescence intensity (a.u.).

**Q.** Which binding signal does the source give for “ACACAGATACTCACAACACGCGTACGTTATCTCCAGCTGACGGAGTCACCTAGTGCAG” here?
**A.** Its binding signal is 12100 fluorescence intensity (a.u.).
